Assay results taken from patent US8580773B2, “Small-molecule inhibitors of the androgen receptor” (The Regents of the University of California, priority 2008, dated 2013).
Structures can show the parent of a compound that is named as a salt.

How the values were obtained:
[1] = mice; doses tested 0.1 to 10 mg/kg
[2] = Pharmacokinetics in mice, drug levels by mass spectrometry; format: in vivo; details: wild-type FVB mice, single intraperitoneal injection

In the case of Cc1cc(/C=C/c2ccc3cc(N(C)C)ccc3[n+]2C)c(C)n1-c1ccccc1 [PP, 6-Dimethylamino-2-[2-(2,5-dimethyl-1-phenyl-1H-pyrrol-3-yl)-vinyl]-1-methyl-quinolinium, pamoate salt, reference compound], the Tolerated dose [1] is reported as 5 mg/kg, the Toxic dose [1] is reported as 10 mg/kg and the “Clearance / half-life (in words)” value [2] is reported as “prolonged half-life”.
